“Also recorded” adds a separate entry of the source. At least one peptide structure holds a part that was inferred or is arguable (an end, a ring closure or a residue). Where no end group is shown, it is not given here.
Legend:
[1] = system: HIV IIIB; assay: Absorption of rhesus monkey 18987 serum neutralizing antibodies by peptides (Figures 17, 25); assay type: cell-based; details: peptide used as absorbent; animal immunized with T1-SP10MN(A)
[2] = system: HIV MN; assay: Absorption of chimpanzee 1070 serum neutralizing antibodies by peptides (Figure 20); assay type: cell-based; details: peptide used as absorbent
[3] = system: T1-SP10(A)A. con. peptide; assay: Cross-reaction of immune sera with Clave A consensus V3 loop peptide; assay type: in vivo; details: sera from immunized goats and mice
[4] = system: T1-SP10EV91(A); assay: End-point ELISA of anti-peptide antibodies after three immunizations; assay type: in vivo, Balb/c mice; details: 50 ug s.c. in IFA, bled 2 weeks after, E/C 3.0, three mice
[5] = system: monoclonal antibody 17b; assay: ELISA binding of monoclonal antibody to plate-coated peptide (Figure 28); parameters: species or system human; details: peptide coated on ELISA plate, 2 µg/well
[6] = system: V3 peptide [SP10(A)]; assay: Preclinical study of prototype peptide mixture components: specificity of anti-V3 peptide response; assay type: in vivo; details: mice
[7] = system: T1-SP10RF(A); assay: End-point ELISA of anti-peptide antibodies after three immunizations; assay type: in vivo, Balb/c mice; details: 50 ug s.c. in IFA, bled 2 weeks after, E/C 3.0, three mice
[8] = system: mab 48d; assay: ELISA binding of monoclonal antibody to plate-coated peptide (Figures 28, 29); parameters: species or system human; details: for Binding to mab 48d: peptide coated on ELISA plate, 2 µg/well
[9] = system: T1-SP10CANO(A); assay: End-point ELISA of anti-peptide antibodies after three immunizations; assay type: in vivo, Balb/c mice; details: 50 ug s.c. in IFA, bled 2 weeks after, E/C 3.0, three mice
[10] = system: T1-SP10IIIB(A) peptide; assay: PBMC proliferative responses to peptide, 7 day tritiated thymidine incorporation (Figure 10); assay type: in vivo; details: immunized chimpanzees
[11] = system: HIV; assay: Mouse immunization study with T1SP10 peptides: anti-peptide and neutralizing antibodies; assay type: in vivo; details: C57BL/6 and Balb/c mice
[12] = system: HIVIIIB; assay: Anti-HIV neutralizing antibodies in goats immunized with the chimpanzee peptide batches (Figure 12); assay type: in vivo; details: same peptide batches as in the chimpanzee study
[13] = system: H-9 cells infected with HTLV-IIIB; assay: Indirect immunofluorescence / FACS of peptide-affinity-purified patient antibodies; assay type: cell-based; details: FACS analysis

Sequence: IGPGRAIGPGRAIGPGRAC [DP2, IGPGRAIGPGRAIGPGRAC]
- Absorption of (cross-)neutralizing activity of rhesus monkey 18987 serum [1]: absorbs the anti-HIVIIIB neutralizing activity in serum from rhesus monkey 18987
- Absorption of anti-HIV MN neutralizing activity of chimpanzee 1070 serum [2]: part of the HIV MN neutralizing activity could be absorbed out

Sequence: KQIINMWQEVGKAMYACTRPHNNTRKSIHMGPGKAFYTTG [T1-SP10CANO(A)]
- Cross-reaction of induced antibodies with T1-SP10(A)A.con. peptide [3]: responsible for generating all of the cross-reactive antibodies to the African Clave A consensus sequence
- Geometric Means Titers, ELISA peptide T1-SP10EV91(A) [4]: 25,600
- Binding to monoclonal antibody 17b [5]: the 17b antibody did not
- Specificity of induced anti-V3 peptide antibody response [6]: induced broadly cross-reactive anti-V3 peptide antibody response
- Geometric Means Titers, ELISA peptide T1-SP10RF(A) [7]: 10,159
- Binding to mab 48d [8]: binds to the 48d mab; also recorded: mab 48d bound to the T1-SP10CANO(A) peptide; also recorded: significantly better; also recorded: binds T1-SP10CANO(A)
- 48d binding after 8 molar urea treatment of the peptide ([8]; plate stripped with 8 molar urea): preventive subsequent 48d binding to the peptide
- Geometric Means Titers, ELISA peptide T1-SP10CANO(A) [9]: 204,800

Sequence: KQIINMWQEVGKAMYACTRPNNNTRKSIRIQRGPG [T1-SP10IIIB]
- PBMC proliferative response to peptide [10]: induced high levels of proliferation of circulating PBMC in animals 884 and 1028
- Anti-peptide antibodies [11]: high titers of anti-peptide antibodies
- Neutralizing antibodies to the HIVIIIB V3 loop neutralizing determinants [11]: no neutralizing antibodies to the HIVIIIB V3 loop neutralizing determinants
- Anti-HIV neutralization titers in goats [12]: good anti-HIV neutralization titers in goats were obtained

Sequence: CTRPHNNTRKSIHMGPGKAFYTTG [SP10CANO(A)]
- Binding to mab 48d [8]: bound to SP10CANO(A) peptide

Sequence: CTRPNNNTRKSIRIQRGPG [SP-10, CTRPNNNTRKSIRIQRGPG]
- Binding of peptide-affinity-purified patient antibodies to the surface of HIV-infected cells [13]: bound to the surface of HIV-infected cells
